Reference: patent publication US20050069951A1
These are yes or no findings as the source states them, for the method shown. Some binding calls cover weakened binding; strength is not graded here.

Amino acid sequences for entries named in this document (tags omitted).
UniProt P16790: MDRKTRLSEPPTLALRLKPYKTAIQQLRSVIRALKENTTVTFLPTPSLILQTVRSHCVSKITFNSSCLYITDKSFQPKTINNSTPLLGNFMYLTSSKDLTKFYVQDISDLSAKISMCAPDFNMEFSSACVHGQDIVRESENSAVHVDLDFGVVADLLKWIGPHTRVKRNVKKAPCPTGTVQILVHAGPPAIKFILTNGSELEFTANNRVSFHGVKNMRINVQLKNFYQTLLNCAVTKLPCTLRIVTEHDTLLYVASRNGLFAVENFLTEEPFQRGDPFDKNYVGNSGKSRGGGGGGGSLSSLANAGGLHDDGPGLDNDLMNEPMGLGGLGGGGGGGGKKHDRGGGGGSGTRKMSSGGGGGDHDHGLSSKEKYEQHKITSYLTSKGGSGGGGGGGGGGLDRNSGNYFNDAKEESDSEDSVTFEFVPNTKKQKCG
UniProt P03372: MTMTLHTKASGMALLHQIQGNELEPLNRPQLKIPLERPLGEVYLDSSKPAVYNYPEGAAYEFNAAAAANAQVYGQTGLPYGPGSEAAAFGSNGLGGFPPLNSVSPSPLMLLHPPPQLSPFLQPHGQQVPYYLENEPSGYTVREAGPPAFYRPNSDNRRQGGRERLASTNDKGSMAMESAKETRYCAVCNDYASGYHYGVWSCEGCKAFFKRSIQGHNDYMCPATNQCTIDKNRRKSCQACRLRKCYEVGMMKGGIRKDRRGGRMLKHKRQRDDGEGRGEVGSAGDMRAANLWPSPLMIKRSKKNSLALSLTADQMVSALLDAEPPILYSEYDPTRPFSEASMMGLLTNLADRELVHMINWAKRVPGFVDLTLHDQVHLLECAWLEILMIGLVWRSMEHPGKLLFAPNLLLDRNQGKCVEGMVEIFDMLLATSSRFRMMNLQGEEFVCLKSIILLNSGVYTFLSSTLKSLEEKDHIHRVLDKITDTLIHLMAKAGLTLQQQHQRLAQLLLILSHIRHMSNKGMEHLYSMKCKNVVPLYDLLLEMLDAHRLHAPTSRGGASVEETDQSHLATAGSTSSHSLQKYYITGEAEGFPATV
UniProt Q00987: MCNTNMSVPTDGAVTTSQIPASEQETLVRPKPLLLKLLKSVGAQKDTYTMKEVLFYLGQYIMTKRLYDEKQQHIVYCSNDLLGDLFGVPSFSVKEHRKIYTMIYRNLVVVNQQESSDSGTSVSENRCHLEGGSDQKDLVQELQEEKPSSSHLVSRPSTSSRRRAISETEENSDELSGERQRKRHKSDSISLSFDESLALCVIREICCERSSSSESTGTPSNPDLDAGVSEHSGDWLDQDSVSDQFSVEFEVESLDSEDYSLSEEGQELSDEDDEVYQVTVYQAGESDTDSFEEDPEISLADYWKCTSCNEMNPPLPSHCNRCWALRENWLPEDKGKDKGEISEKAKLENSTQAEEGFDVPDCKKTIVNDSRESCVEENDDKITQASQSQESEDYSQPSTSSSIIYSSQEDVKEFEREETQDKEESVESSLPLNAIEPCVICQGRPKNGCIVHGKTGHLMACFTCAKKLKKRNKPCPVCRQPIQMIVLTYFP

T1: Yeast alcohol dehydrogenase (yeast) (UniProt P00330)
T1 sequence (looked up): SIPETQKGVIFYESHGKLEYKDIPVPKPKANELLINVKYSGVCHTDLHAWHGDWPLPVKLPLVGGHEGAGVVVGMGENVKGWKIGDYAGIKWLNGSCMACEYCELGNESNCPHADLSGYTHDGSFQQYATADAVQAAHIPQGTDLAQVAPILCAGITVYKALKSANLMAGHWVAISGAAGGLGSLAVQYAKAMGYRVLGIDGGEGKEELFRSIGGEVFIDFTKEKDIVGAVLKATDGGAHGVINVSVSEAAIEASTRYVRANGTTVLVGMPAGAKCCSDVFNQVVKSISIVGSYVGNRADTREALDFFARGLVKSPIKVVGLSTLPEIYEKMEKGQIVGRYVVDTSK


Target: GST-UL44 fusion protein (human cytomegalovirus) (UniProt P16790)
Test: ELSA: biotinylated peptide pre-complexed with SA-AP, immobilized target

| Binder | binding |
| --- | --- |
| SGSGEHVCSWGWGRC (N-terminal biotin) [biotinylated UL44 surrogate ligand peptide] | binds |

Target: GST-UL44 fusion protein (human cytomegalovirus) (UniProt P16790)
Test: phage ELISA on immobilized GSTUL44 with GSH or DNA as competitor

| Binder | binding |
| --- | --- |
| EHVCSWGWGRC [UL44-binding phage from the X10C library] | binds |

Target: thrombin cleaved UL44 (human cytomegalovirus) (UniProt P16790)
Test: phage ELISA, immobilized thrombin cleaved UL44

| Binder | binding |
| --- | --- |
| EHVCSWGWGRC [UL44-binding phage from the X10C library] | binds |

Target: estrogen receptor α (UniProt P03372)
Test: phage ELISA on immobilized ER with 100 µM estradiol, estriol or antiestrogens; phage selected with estradiol

| Binder | binding |
| --- | --- |
| SRAGLLSDLLEGKSR [ER + estradiol phage 1/2] | binds |
| SSRSLLRDLLMVDSR [ER + estradiol phage 6] | binds |
| SSNKLLYNLLKMESR [ER + estradiol phage 22] | binds |
| SSKSLLLNLLSTPSR [ER + estradiol phage 23] | binds |
| SRLEMLLRSETDFSR [ER + estradiol phage 3] | binds |
| SRLEELLKWGSVTSR [ER + estradiol phage 11] | binds |
| SRLEQLLKEEFSYSR [ER + estradiol phage 21] | binds |
| SRLEQLLRSEPDFSR [ER + estradiol phage 27] | binds |
| SRLEDLLRAPFTTSR [ER + estradiol phage 28] | binds |
| SRLESLLRFGQLDSR [ER + estradiol phage 29] | binds |
| SSRLLSLLVGDFNSR [ER + estradiol phage 19/20] | binds |
| SRLEELLLGTNRDSR [ER + estradiol phage 30] | binds |
| SRLKELLLLPTDLSR [ER + estradiol phage 15] | binds |
| SRLECLLEGRLNCSR [ER + estradiol phage 34] | binds |
| SSKLYCLLDESYCSR [ER + estradiol phage 35] | binds |
| SRLSCLLMGFEDCSR [ER + estradiol phage 36] | binds |
| SSKLIRLLTSDEELSR [ER + estradiol phage 37] | binds |
| SSRLMELLQEGQGWSR [ER + estradiol phage 40] | binds |
| SSNHQSSRLIELLSR [ER + estradiol phage 4] | binds |
| SSRLWQLLASTDTSR [ER + estradiol phage 16] | binds |
| SSNSMLWKLLAAPSR [ER + estradiol phage 13/14] | binds |
| SSKTLWRLLEGERSR [ER + estradiol phage 17] | binds |
| SRAGPVLWGLLSESR [ER + estradiol phage 32] | binds |
| SRSLLECHLMGNCSR [ER + estradiol phage 7] | binds |
| SSELLRWHLTRDTSR [ER + estradiol phage 8] | binds |
| SRLEYWLKWEPGPSR [ER + estradiol phage 12] | binds |
| SRSDSILWRMLSESR [ER + estradiol phage 31] | binds |
| SSKGVLWRMLAEPVSR [ER + estradiol phage 38/39] | binds |
| HSHGPLTLNLLRSSGG [ER + estradiol phage 41] | binds |
| SSAGGGAPAGSTPSR [ER + estradiol phage 26] | binds |

Target: estrogen receptor α (UniProt P03372)
Test: phage ELISA on immobilized ER; phage selected without estradiol

| Binder | binding |
| --- | --- |
| SRTWESPLGTWEWSR [ER phage 13 (selected without estradiol)] | binds |
| SSKYSYSRSSEGHSR [ER phage 29 (selected without estradiol)] | binds |
| SSWVRLSDFPWGVSR [ER phage 1 (selected without estradiol)] | binds |
| SSWDRLSDFPWGVSR [ER phage 2 (selected without estradiol)] | binds |
| SSWIRLRDLPWGESR [ER phage 3 (selected without estradiol)] | binds |
| SSWVLLRDLPWGSR [ER phage 31 (selected without estradiol)] | binds |
| SSCKWYEKCSGLWSR [ER phage 7 (selected without estradiol)] | binds |
| SSGICFFWDGCFESR [ER phage 35 (selected without estradiol)] | binds |
| SRNLCFFWDDEYCSR [ER phage 41 (selected without estradiol)] | binds |
| HHHRHPAHPHTYGG [ER phage 47 (selected without estradiol)] | binds |

Target: GST-human MDM2 fusion protein (human) (UniProt Q00987)
Test: phage ELISA against MDM2 and a variety of proteins

| Binder | binding |
| --- | --- |
| PFQDYWEELLN | binds |
| PFHSWWQDLTD | binds |
| NFWDEWQTFMD | binds |
| SFTDYWRDLEQ | binds |
| GAPWNWEKKEL | binds |
| ADPRLPVEREL | binds |
| MDGSGGERNSMW | binds |
| PMRTEWAVGSES | binds |

Target: thrombin cleaved UL44 (human cytomegalovirus) (UniProt P16790)
Test: phage ELISA, immobilized target

| Binder | binding |
| --- | --- |
| EHVCSWGWGRC [UL44-binding phage from the X10C library] | binds |

Target: GST-UL44 fusion protein (human cytomegalovirus) (UniProt P16790)
Test: phage ELISA, immobilized target

| Binder | binding |
| --- | --- |
| EHVCSWGWGRC [UL44-binding phage from the X10C library] | binds |

Target: T1, Yeast alcohol dehydrogenase (yeast)
Test: phage ELISA

| Binder | binding |
| --- | --- |
| SSNYWWQSPVLSRHSR [phage-displayed peptide … (CWL library)] | binds |
| SSWQGNVLLGNWISR [phage-displayed peptide … (L library)] | binds |
| SSLLNESRLQWSTSR [phage-displayed peptide … (R library)] | binds |
| SRQVEVFKPWPVYSR [phage-displayed peptide … (K library)] | binds |
| SSSFKPWPIYLGSSR [phage-displayed peptide … (P library)] | binds |
| SVSVGMKPSPRP [phage-displayed peptide … (PHD12 library)] | binds |

Target: GST-UL44 fusion protein (human cytomegalovirus) (UniProt P16790)
Test: phage ELISA on immobilized GSTUL44

| Binder | binding |
| --- | --- |
| EHVCSWGWGRC [UL44-binding phage from the X10C library] | binds |

Target: estrogen receptor α (UniProt P03372)
Test: phage ELISA on immobilized ER with estradiol or antiestrogens; phage selected with estradiol

| Binder | binding |
| --- | --- |
| SSWVRLSDFPWGVSR [ER phage 1 (selected without estradiol)] | binds |
| SSLTSRDFGSWYASR [ER + estradiol phage 5] | binds |
| SSEYCFYWDSAHCSR [ER + estradiol phage 33] | binds |
